The experiment has as its target GST fusion protein containing the Listeria virulence protein InlC (Listeria monocytogenes) (UniProt P71451). As to the kind of experiment: pull-down.

The chains behind the UniProt entries cited, without tags or fusion partners. Residues count along the entry.
UniProt P71451, 35-297: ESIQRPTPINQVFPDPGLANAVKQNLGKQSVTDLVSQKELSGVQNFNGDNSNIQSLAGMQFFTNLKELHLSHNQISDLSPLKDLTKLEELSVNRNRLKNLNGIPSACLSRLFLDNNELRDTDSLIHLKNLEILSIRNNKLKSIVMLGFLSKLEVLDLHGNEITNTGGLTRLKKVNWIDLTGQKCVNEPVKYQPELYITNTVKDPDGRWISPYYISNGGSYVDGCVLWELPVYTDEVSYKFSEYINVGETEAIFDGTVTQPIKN

One substance from article doi:10.1101/2024.04.10.588880 can be followed below.

Results are given in words; binding and its absence hold for the method and conditions named. A result given as binding can be weak or reduced; the word gives no strength.

Regarding “SH36 domain of Tuba with its GST tag removed (from UniProt Q6XZF7) (domain or fragment)”, the binding result was “binds”.
